Measured values reported in doi:10.1101/2020.08.21.260711.
No constants are given. Whether binding was seen depends on the method and setting. In cells and extracts the contact can be indirect. Some binding calls cover weakened binding; strength is not graded here. Sequences can lack the tags named with a protein.

Target: T1, Entamoeba histolytica deoxyhypusine synthase 1 (EhDHS1) with the amino-terminal His-tag (E. histolytica) (UniProt C4LXB8)
T1 sequence: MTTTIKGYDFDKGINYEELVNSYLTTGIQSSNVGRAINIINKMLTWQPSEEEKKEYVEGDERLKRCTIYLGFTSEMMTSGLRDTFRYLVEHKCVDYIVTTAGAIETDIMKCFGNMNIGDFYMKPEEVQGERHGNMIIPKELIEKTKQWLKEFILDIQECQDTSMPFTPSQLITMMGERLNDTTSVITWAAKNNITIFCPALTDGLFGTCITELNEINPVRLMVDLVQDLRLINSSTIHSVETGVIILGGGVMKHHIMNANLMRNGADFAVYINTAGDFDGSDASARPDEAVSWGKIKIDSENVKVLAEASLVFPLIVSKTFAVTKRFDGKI
Assay: pull-down

B1: Entamoeba histolytica deoxyhypusine synthase 2 (EhDHS2) with the carboxyl-terminal S-tag (enzyme, UniProt C4M2N7 1-336)
chain: MSITGEEFAKVTSKVLGESKEYKGEKCIGYDFDNGVDFNKVMEKMKYTGFQALNLGLCIEQVNEMRKNHAKIFLGMSSNIVSSGLREVIHYLVKNKFVDAIVVTAGGIEEDFIKTMHPTLLGDFYFKGKELYPNGYNRIGNLILPNSNYCEFEDWMDPLLLECLKEQNEHGVHWTPSKLVHKMGESINNESSIYYWAAKNNIPVFSPAITDGSIGDMIFFFSYKNEGLVLDLVQDVIKIDEMAFNAEKVGCLLVGAGIAKHHILNAMKRRGGCDYCAMLSTSIECDASDAGSEIAADRTKGFFKPECNPAKVIGDATILLPLIVASTFAQKEEPTK
  binding: binds
